From patent publication US8367873B2, “Phenyl-substituted bicyclooctane-1,3-dione derivatives” (Bayer Cropscience AG, priority 2008, dated 2013)
Some results were stated once for a whole list of compounds, not compound by compound.

Tests used:
Type in all cases: in vivo
Echinocloa crus-galli [1] = test: Herbicidal post-emergence action; settings: 80 g/ha, against Echinocloa crus-galli, section Post-Emergence Action (sentence prints 'pre-emergence method'), assessed after about three weeks
Description: (§1) Seeds of monocotylidonous and dicotylidonous weed and crop plants are placed in sandy loam in wood fibre pots, covered with soil and cultivated in a greenhouse under good growth conditions. Two to three weeks after sowing, the test plants are treated at the one-leaf stage. The test compounds, formulated as wettable powders (WP), are then with a water application rate of 600 l/ha (converted), with 0.2% of wetting agent added, sprayed onto the green parts of the plants in different amounts. After the test plants have been kept in the greenhouse under optimum growth conditions for about three weeks, the effect of the preparations is assessed visually in comparison to untreated controls (herbicidal effect in percent: 100% effect=the plants have died, 0% effect=like control plants).

Lolium multiflorum [2] = test: Herbicidal post-emergence action; settings: 80 g/ha, against Lolium multiflorum, section Post-Emergence Action (sentence prints 'pre-emergence method'), assessed after about three weeks
Description: as §1

Setaria viridis [3] = test: Herbicidal post-emergence action; settings: 80 g/ha, against Setaria viridis, section Post-Emergence Action (sentence prints 'pre-emergence method'), assessed after about three weeks
Description: as §1

Alopecurus myosuroides [4] = test: Herbicidal post-emergence action; settings: 80 g/ha, against Alopecurus myosuroides, section Post-Emergence Action (sentence prints 'pre-emergence method'), assessed after about three weeks
Description: as §1

Echinocloa crus-galli [5] = test: Herbicidal pre-emergence action; settings: pre-emergence method, 320 g/ha a.i., against Echinocloa crus-galli, visual assessment after three weeks
From the text: (§2) Seeds of monocotylidonous and dicotylidonous weed and crop plants are placed in sandy loam in wood fibre pots and covered with soil. The test compounds, formulated in the form of wettable powders (WP), are then, as an aqueous suspension with a water application rate of 600 l/ha (converted), with 0.2% of wetting agent added, applied to the surface of the covering soil in different amounts.
(§3) After the treatment, the pots are placed in a greenhouse and kept under good growth conditions for the test plants. The visual assessment of the emergence damage on the test plants is carried out after a trial period of three weeks by comparison with the untreated controls (herbicidal effect in percent: 100% effect=the plants have died, 0% effect=like control plants).

Lolium multiflorum [6] = test: Herbicidal pre-emergence action; settings: pre-emergence method, 320 g/ha a.i., against Lolium multiflorum, visual assessment after three weeks
From the text: as §2, §3

Setaria viridis [7] = test: Herbicidal pre-emergence action; settings: pre-emergence method, 320 g/ha a.i., against Setaria viridis, visual assessment after three weeks
From the text: as §2, §3

Alopecurus myosuroides [8] = test: Herbicidal pre-emergence action; settings: pre-emergence method, 320 g/ha a.i., against Alopecurus myosuroides, visual assessment after three weeks
From the text: as §2, §3

Measured: herbicidal effect in percent

CCc1cc(C)cc(CC)c1C1=C(O)[C@H]2C[C@]3(COC(C)(C)O3)C[C@H]2C1=O [I-a-2]
≥ 80%: Echinocloa crus-galli [1] | Lolium multiflorum [2] | Setaria viridis [3] | Alopecurus myosuroides [4]

C=C1CC2C(=O)C(c3c(CC)cc(C)cc3CC)=C(OC(=O)OCC)C2C1 (stereo not shown) [I-c-5, 2-(2,6-diethyl-4-methylphenyl)-5-methylidene-3-oxo-3,3a,4,5,6,6a-hexahydropentalen-1-yl ethyl carbonate]
≥ 80%: Echinocloa crus-galli [5] | Lolium multiflorum [6] | Setaria viridis [7] | Alopecurus myosuroides [8]

CCc1cc(C)cc(CC)c1C1=C(O)C2CC3(COC(CC)O3)CC2C1=O (stereo not shown) [I-a-6]
≥ 80%: all assays above

CCc1cc(C)cc(CC)c1C1=C(O)C2CC3(COC(C)O3)CC2C1=O (mixture of isomers) [I-a-7]
≥ 80%: all assays above

CCc1cc(C)cc(CC)c1C1=C(OC(=O)C(C)(C)C)C2CC3(COC(C)(C)O3)CC2C1=O (stereo not shown) [I-b-5]
≥ 80%: Echinocloa crus-galli [5] | Lolium multiflorum [6] | Setaria viridis [7] | Alopecurus myosuroides [8]

CCc1cc(C)cc(CC)c1C1=C(O)[C@H]2CC3(C[C@H]2C1=O)OCC(C)(C)CO3 (relative stereo) [I-a-9]
≥ 80%: Echinocloa crus-galli [5] | Lolium multiflorum [6] | Setaria viridis [7] | Alopecurus myosuroides [8]

CCc1cc(C)cc(CC)c1C1=C(O)[C@H]2CC3(C[C@H]2C1=O)OCCO3 (relative stereo) [I-a-8]
≥ 80%: all assays above

CCc1cc(C)cc(CC)c1C1=C(O)[C@H]2CC3(C[C@H]2C1=O)OCC=CCO3 (relative stereo) [I-a-14]
≥ 80%: all assays above

CCc1cc(C)cc(CC)c1C1=C([O-])[C@H]2CC3(C[C@H]2C1=O)SCCCS3.[Na+] [I-f-1]
≥ 80%: Echinocloa crus-galli [1] | Lolium multiflorum [2] | Setaria viridis [3] | Alopecurus myosuroides [4]

CCc1cc(C)cc(CC)c1C1=C(O)[C@H]2CC3(C[C@H]2C1=O)OCCCCO3 (relative stereo) [I-a-13]
≥ 80%: all assays above

CCc1cc(C)cc(CC)c1C1=C(O)C2CC3(CC2C1=O)OC(C)CC(C)O3 (mixture of isomers) [I-a-12]
≥ 80%: all assays above

CCc1cc(C)cc(CC)c1C1=C(OC(=O)C(C)C)C2CC3(COC(C)(C)O3)CC2C1=O (stereo not shown) [I-b-7]
≥ 80%: all assays above

CCc1cc(C)cc(CC)c1C1=C(OC(=O)COC)C2CC3(COC(C)(C)O3)CC2C1=O (stereo not shown) [I-b-4]
≥ 80%: Echinocloa crus-galli [5] | Lolium multiflorum [6] | Setaria viridis [7] | Alopecurus myosuroides [8]

CCc1cc(C)cc(CC)c1C1=C(O)[C@H]2CC3(C[C@H]2C1=O)OCCCO3 (relative stereo) [I-a-11]
≥ 80%: all assays above

CCC(=O)OC1=C(c2c(CC)cc(C)cc2CC)C(=O)C2CC3(COC(C)(C)O3)CC12 (stereo not shown) [I-b-6]
≥ 80%: all assays above

C=C1COC2(C[C@@H]3C(O)=C(c4c(CC)cc(C)cc4CC)C(=O)[C@@H]3C2)OC1 [I-a-3]
≥ 80%: all assays above

CCC(=O)OC1=C(c2c(CC)cc(C)cc2CC)C(=O)C2CC3(COC(C)(C)O3)CC12 (stereo not shown) [I-b-2]
≥ 80%: Echinocloa crus-galli [1] | Lolium multiflorum [2] | Setaria viridis [3] | Alopecurus myosuroides [4]

CCc1cc(C)cc(CC)c1C1=C(OC(=O)C(C)(C)C)C2CC3(COC(C)(C)O3)CC2C1=O (stereo not shown) [I-b-8]
≥ 80%: Echinocloa crus-galli [5] | Lolium multiflorum [6] | Setaria viridis [7] | Alopecurus myosuroides [8]
